Source: publication PMC12989817

Chains of the proteins cited; added tags and fusions are not shown. Residues count along the entry.
UniProt P22001, residues 53-575: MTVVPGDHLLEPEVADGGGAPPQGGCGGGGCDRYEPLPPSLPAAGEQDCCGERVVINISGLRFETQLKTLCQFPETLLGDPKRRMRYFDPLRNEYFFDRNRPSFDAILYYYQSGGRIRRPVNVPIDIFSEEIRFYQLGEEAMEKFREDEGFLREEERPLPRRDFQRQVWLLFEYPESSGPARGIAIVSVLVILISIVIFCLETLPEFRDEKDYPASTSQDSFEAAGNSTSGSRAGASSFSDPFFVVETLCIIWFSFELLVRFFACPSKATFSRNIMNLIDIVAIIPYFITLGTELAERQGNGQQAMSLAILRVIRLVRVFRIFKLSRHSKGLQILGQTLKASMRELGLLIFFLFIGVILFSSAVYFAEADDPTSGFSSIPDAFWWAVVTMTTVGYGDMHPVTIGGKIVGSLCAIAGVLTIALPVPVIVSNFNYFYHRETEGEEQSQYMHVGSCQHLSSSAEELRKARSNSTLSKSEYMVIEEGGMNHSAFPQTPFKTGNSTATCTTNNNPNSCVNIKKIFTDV

B1: SIRT2 (protein, UniProt Q8IXJ6 1-389)
chain: MAEPDPSHPLETQAGKVQEAQDSDSDSEGGAAGGEADMDFLRNLFSQTLSLGSQKERLLDELTLEGVARYMQSERCRRVICLVGAGISTSAGIPDFRSPSTGLYDNLEKYHLPYPEAIFEISYFKKHPEPFFALAKELYPGQFKPTICHYFMRLLKDKGLLLRCYTQNIDTLERIAGLEQEDLVEAHGTFYTSHCVSASCRHEYPLSWMKEKIFSEVTPKCEDCQSLVKPDIVFFGESLPARFFSCMQSDFLKVDLLLVMGTSLQVQPFASLISKAPLSTPRLLINKEKAGQSDPFLGMIMGLGGGMDFDSKKAYRDVAWLGECDQGCLALAELLGWKKELEDLVRREHASIDAQSGAGVPNPSTSASPKKSPPPAKDEARTTEREKPQ
B2: STX7 (protein, UniProt O15400 1-261)
chain: MSYTPGVGGDPAQLAQRISSNIQKITQCSVEIQRTLNQLGTPQDSPELRQQLQQKQQYTNQLAKETDKYIKEFGSLPTTPSEQRQRKIQKDRLVAEFTTSLTNFQKVQRQAAEREKEFVARVRASSRVSGSFPEDSSKERNLVSWESQTQPQVQVQDEEITEDDLRLIHERESSIRQLEADIMDINEIFKDLGMMIHEQGDVIDSIEANVENAEVHVQQANQQLSRAADYQRKSRKTLCIIILILVIGVAIISLIIWGLNH
B3: EPS15 (protein, UniProt P42566 1-896)
chain: MAAAAQLSLTQLSSGNPVYEKYYRQVDTGNTGRVLASDAAAFLKKSGLPDLILGKIWDLADTDGKGILNKQEFFVALRLVACAQNGLEVSLSSLNLAVPPPRFHDTSSPLLISGTSAAELPWAVKPEDKAKYDAIFDSLSPVNGFLSGDKVKPVLLNSKLPVDILGRVWELSDIDHDGMLDRDEFAVAMFLVYCALEKEPVPMSLPPALVPPSKRKTWVVSPAEKAKYDEIFLKTDKDMDGFVSGLEVREIFLKTGLPSTLLAHIWSLCDTKDCGKLSKDQFALAFHLISQKLIKGIDPPHVLTPEMIPPSDRASLQKNIIGSSPVADFSAIKELDTLNNEIVDLQREKNNVEQDLKEKEDTIKQRTSEVQDLQDEVQRENTNLQKLQAQKQQVQELLDELDEQKAQLEEQLKEVRKKCAEEAQLISSLKAELTSQESQISTYEEELAKAREELSRLQQETAELEESVESGKAQLEPLQQHLQDSQQEISSMQMKLMEMKDLENHNSQLNWCSSPHSILVNGATDYCSLSTSSSETANLNEHVEGQSNLESEPIHQESPARSSPELLPSGVTDENEVTTAVTEKVCSELDNNRHSKEEDPFNVDSSSLTGPVADTNLDFFQSDPFVGSDPFKDDPFGKIDPFGGDPFKGSDPFASDCFFRQSTDPFATSSTDPFSAANNSSITSVETLKHNDPFAPGGTVVAASDSATDPFASVFGNESFGGGFADFSTLSKVNNEDPFRSATSSSVSNVVITKNVFEETSVKSEDEPPALPPKIGTPTRPCPLPPGKRSINKLDSPDPFKLNDPFQPFPGNDSPKEKDPEIFCDPFTSATTTTNKEADPSNFANFSAYPSEEDMIEWAKRESEREEEQRLARLNQQEQEDLELAIALSKSEISEA
B4: SCAMP3 (protein, UniProt O14828 1-347)
chain: MAQSRDGGNPFAEPSELDNPFQDPAVIQHRPSRQYATLDVYNPFETREPPPAYEPPAPAPLPPPSAPSLQPSRKLSPTEPKNYGSYSTQASAAAATAELLKKQEELNRKAEELDRRERELQHAALGGTATRQNNWPPLPSFCPVQPCFFQDISMEIPQEFQKTVSTMYYLWMCSTLALLLNFLACLASFCVETNNGAGFGLSILWVLLFTPCSFVCWYRPMYKAFRSDSSFNFFVFFFIFFVQDVLFVLQAIGIPGWGFSGWISALVVPKGNTAVSVLMLLVALLFTGIAVLGIVMLKRIHSLYRRTGASFQKAQQEFAAGVFSNPAVRTAAANAAAGAAENAFRAP
B5: TSC1 (protein, UniProt Q92574 1-1164)
chain: MAQQANVGELLAMLDSPMLGVRDDVTAVFKENLNSDRGPMLVNTLVDYYLETSSQPALHILTTLQEPHDKHLLDRINEYVGKAATRLSILSLLGHVIRLQPSWKHKLSQAPLLPSLLKCLKMDTDVVVLTTGVLVLITMLPMIPQSGKQHLLDFFDIFGRLSSWCLKKPGHVAEVYLVHLHASVYALFHRLYGMYPCNFVSFLRSHYSMKENLETFEEVVKPMMEHVRIHPELVTGSKDHELDPRRWKRLETHDVVIECAKISLDPTEASYEDGYSVSHQISARFPHRSADVTTSPYADTQNSYGCATSTPYSTSRLMLLNMPGQLPQTLSSPSTRLITEPPQATLWSPSMVCGMTTPPTSPGNVPPDLSHPYSKVFGTTAGGKGTPLGTPATSPPPAPLCHSDDYVHISLPQATVTPPRKEERMDSARPCLHRQHHLLNDRGSEEPPGSKGSVTLSDLPGFLGDLASEEDSIEKDKEEAAISRELSEITTAEAEPVVPRGGFDSPFYRDSLPGSQRKTHSAASSSQGASVNPEPLHSSLDKLGPDTPKQAFTPIDLPCGSADESPAGDRECQTSLETSIFTPSPCKIPPPTRVGFGSGQPPPYDHLFEVALPKTAHHFVIRKTEELLKKAKGNTEEDGVPSTSPMEVLDRLIQQGADAHSKELNKLPLPSKSVDWTHFGGSPPSDEIRTLRDQLLLLHNQLLYERFKRQQHALRNRRLLRKVIKAAALEEHNAAMKDQLKLQEKDIQMWKVSLQKEQARYNQLQEQRDTMVTKLHSQIRQLQHDREEFYNQSQELQTKLEDCRNMIAELRIELKKANNKVCHTELLLSQVSQKLSNSESVQQQMEFLNRQLLVLGEVNELYLEQLQNKHSDTTKEVEMMKAAYRKELEKNRSHVLQQTQRLDTSQKRILELESHLAKKDHLLLEQKKYLEDVKLQARGQLQAAESRYEAQKRITQVFELEILDLYGRLEKDGLLKKLEEEKAEAAEAAEERLDCCNDGCSDSMVGHNEEASGHNGETKTPRPSSARGSSGSRGGGGSSSSSSELSTPEKPPHQRAGPFSSRWETTMGEASASIPTTVGSLPSSKSFLGMKARELFRNKSESQCDEDGMTSSLSESLKTELGKDLGVEAKIPLNLDGPHPSPPTPDSVGQLHIMDYNETHHEHS
B6: PLIN3 (protein, UniProt O60664 1-434)
chain: MSADGAEADGSTQVTVEEPVQQPSVVDRVASMPLISSTCDMVSAAYASTKESYPHIKTVCDAAEKGVRTLTAAAVSGAQPILSKLEPQIASASEYAHRGLDKLEENLPILQQPTEKVLADTKELVSSKVSGAQEMVSSAKDTVATQLSEAVDATRGAVQSGVDKTKSVVTGGVQSVMGSRLGQMVLSGVDTVLGKSEEWADNHLPLTDAELARIATSLDGFDVASVQQQRQEQSYFVRLGSLSERLRQHAYEHSLGKLRATKQRAQEALLQLSQVLSLMETVKQGVDQKLVEGQEKLHQMWLSWNQKQLQGPEKEPPKPEQVESRALTMFRDIAQQLQATCTSLGSSIQGLPTNVKDQVQQARRQVEDLQATFSSIHSFQDLSSSILAQSRERVASAREALDHMVEYVAQNTPVTWLVGPFAPGITEKAPEEKK
B7: LZTS1 (protein, UniProt Q9Y250 1-596)
chain: MGSVSSLISGHSFHSKHCRASQYKLRKSSHLKKLNRYSDGLLRFGFSQDSGHGKSSSKMGKSEDFFYIKVSQKARGSHHPDYTALSSGDLGGQAGVDFDPSTPPKLMPFSNQLEMGSEKGAVRPTAFKPVLPRSGAILHSSPESASHQLHPAPPDKPKEQELKPGLCSGALSDSGRNSMSSLPTHSTSSSYQLDPLVTPVGPTSRFGGSAHNITQGIVLQDSNMMSLKALSFSDGGSKLGHSNKADKGPSCVRSPISTDECSIQELEQKLLEREGALQKLQRSFEEKELASSLAYEERPRRCRDELEGPEPKGGNKLKQASQKSQRAQQVLHLQVLQLQQEKRQLRQELESLMKEQDLLETKLRSYEREKTSFGPALEETQWEVCQKSGEISLLKQQLKESQTEVNAKASEILGLKAQLKDTRGKLEGLELRTQDLEGALRTKGLELEVCENELQRKKNEAELLREKVNLLEQELQELRAQAALARDMGPPTFPEDVPALQRELERLRAELREERQGHDQMSSGFQHERLVWKEEKEKVIQYQKQLQQSYVAMYQRNQRLEKALQQLARGDSAGEPLEVDLEGADIPYEDIIATEI

These binders were tested against C-terminal Kv1.3-TurboID (Kv1.3-V5-TurboID fusion) (human) (UniProt P22001) (assay: proximity labelling; TurboID fused to Kv1.3, stably expressed in Jurkat T-cells; 200 μM biotin for 1 h; lysis in 8 M urea; biotinylated proteins enriched on streptavidin magnetic beads; label-free quantitative MS against untransduced Jurkat T-cells or between lines (>4-fold, p<0.05; n=3)).

binding, binds:
B1, B2, B3, B4, B5, B6, B7

No constants are given. Whether binding was seen depends on the method and setting. Binding seen in cells or lysates may run through a third protein. A yes stands for co-enrichment or nearness to the bait. Other partners may have been found.
